Measured values published in patent publication US20050084916A1, “Identification of the IkappaBNS protein and its products” (priority 2001, published 2005).
For at least one compound, name, drawing or mass did not settle the structure.

Test system: IκBNS mRNA
Experiment: Northern analysis of IκBNS expression in thymii of treated animals
Parameters: species or system mouse
Details: C57BL/6 mice treated in vivo; dexamethasone 0.5 mg, 1 and 2 h, normalized with GAPDH message

## C[C@@H]1C[C@H]2[C@@H]3CCC4=CC(=O)C=C[C@]4(C)[C@@]3(F)[C@@H](O)C[C@]2(C)[C@@]1(O)C(=O)CO [dexamethasone]
  IκBNS message in thymic RNA: essentially no induction
